No constants are given. Whether binding was seen depends on the method and setting. Binding seen in cells or lysates may run through a third protein. These calls come from enrichment with a bait or labelling near it, and not all partners need be listed. Where a sequence is shown, tags or fusion partners need not be part of it.
Molecular target: T1, His6-tagged BarA (Escherichia coli) (UniProt P0AEC5)
T1 sequence: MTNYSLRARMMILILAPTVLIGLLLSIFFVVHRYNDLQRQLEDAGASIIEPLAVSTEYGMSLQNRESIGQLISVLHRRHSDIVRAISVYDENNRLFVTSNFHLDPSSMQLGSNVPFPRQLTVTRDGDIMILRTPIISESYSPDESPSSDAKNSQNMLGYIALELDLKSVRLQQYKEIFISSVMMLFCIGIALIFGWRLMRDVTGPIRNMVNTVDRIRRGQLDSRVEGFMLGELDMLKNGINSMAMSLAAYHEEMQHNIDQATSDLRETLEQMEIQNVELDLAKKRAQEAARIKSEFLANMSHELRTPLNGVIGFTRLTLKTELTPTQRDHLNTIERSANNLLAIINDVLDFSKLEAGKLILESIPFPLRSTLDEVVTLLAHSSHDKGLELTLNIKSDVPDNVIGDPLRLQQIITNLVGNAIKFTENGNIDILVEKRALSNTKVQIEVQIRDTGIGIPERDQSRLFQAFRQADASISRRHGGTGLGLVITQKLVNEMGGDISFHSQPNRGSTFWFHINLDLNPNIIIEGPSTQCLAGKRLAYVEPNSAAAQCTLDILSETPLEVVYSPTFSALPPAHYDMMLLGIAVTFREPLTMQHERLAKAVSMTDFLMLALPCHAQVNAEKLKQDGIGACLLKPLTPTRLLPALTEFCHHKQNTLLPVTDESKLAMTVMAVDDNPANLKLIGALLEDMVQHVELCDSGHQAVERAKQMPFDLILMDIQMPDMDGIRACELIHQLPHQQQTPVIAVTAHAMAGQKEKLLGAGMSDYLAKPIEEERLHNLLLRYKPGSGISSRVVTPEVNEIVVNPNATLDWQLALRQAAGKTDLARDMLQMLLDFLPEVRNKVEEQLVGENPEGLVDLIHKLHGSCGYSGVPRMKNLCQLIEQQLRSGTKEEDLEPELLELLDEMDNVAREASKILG
Assay: affinity purification with mass spectrometry; in vivo cross-linking with 1% formaldehyde for 10 min at 37 °C; His6-BarA as bait purified under denaturing conditions (8 M urea) on Ni-NTA agarose; cross-links reversed; copurified proteins identified by LC-MS/MS; control strain without the His6-BarA plasmid

B1: HflK (protein, UniProt P0ABC7 1-419)
chain: MAWNQPGNNGQDRDPWGSSKPGGNSEGNGNKGGRDQGPPDLDDIFRKLSKKLGGLGGGKGTGSGGGSSSQGPRPQLGGRVVTIAAAAIVIIWAASGFYTIKEAERGVVTRFGKFSHLVEPGLNWKPTFIDEVKPVNVEAVRELAASGVMLTSDENVVRVEMNVQYRVTNPEKYLYSVTSPDDSLRQATDSALRGVIGKYTMDRILTEGRTVIRSDTQRELEETIRPYDMGITLLDVNFQAARPPEEVKAAFDDAIAARENEQQYIREAEAYTNEVQPRANGQAQRILEEARAYKAQTILEAQGEVARFAKLLPEYKAAPEITRERLYIETMEKVLGNTRKVLVNDKGGNLMVLPLDQMLKGGNAPAAKSDNGASNLLRLPPASSSTTSGASNTSSTSQGDIMDQRRANAQRNDYQRQGE
B1 was tested, and the binding was “binds”.

— PMC10277598
